Measurements published in the supplement of paper PMC10849652.
The list shows a part of the results.

Chains of the proteins cited; added tags and fusions are not shown. Lines headed by an entry give the natural chain unless they say otherwise; changes in a name come on top.
UniProt O95352: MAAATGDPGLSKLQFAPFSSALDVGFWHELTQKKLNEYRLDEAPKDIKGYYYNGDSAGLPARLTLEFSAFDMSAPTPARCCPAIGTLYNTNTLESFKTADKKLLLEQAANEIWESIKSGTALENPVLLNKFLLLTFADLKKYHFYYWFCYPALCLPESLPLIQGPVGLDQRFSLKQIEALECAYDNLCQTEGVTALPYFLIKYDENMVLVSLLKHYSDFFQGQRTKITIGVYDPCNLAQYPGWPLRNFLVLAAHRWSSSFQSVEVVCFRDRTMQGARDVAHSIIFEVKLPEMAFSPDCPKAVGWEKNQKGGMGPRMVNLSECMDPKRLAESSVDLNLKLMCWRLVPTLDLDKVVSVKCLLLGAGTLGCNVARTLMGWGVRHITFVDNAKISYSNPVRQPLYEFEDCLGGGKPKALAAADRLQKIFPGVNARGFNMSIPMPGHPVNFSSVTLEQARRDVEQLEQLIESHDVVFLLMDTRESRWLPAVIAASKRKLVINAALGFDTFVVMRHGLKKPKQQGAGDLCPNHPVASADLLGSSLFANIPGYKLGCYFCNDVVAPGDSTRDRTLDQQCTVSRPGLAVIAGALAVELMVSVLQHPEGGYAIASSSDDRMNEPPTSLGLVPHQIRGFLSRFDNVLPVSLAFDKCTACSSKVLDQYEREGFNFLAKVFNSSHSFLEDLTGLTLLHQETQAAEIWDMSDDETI
UniProt O75964: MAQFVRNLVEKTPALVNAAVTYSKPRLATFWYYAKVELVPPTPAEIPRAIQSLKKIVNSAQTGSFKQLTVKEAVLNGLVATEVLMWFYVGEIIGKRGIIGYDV
UniProt P16615: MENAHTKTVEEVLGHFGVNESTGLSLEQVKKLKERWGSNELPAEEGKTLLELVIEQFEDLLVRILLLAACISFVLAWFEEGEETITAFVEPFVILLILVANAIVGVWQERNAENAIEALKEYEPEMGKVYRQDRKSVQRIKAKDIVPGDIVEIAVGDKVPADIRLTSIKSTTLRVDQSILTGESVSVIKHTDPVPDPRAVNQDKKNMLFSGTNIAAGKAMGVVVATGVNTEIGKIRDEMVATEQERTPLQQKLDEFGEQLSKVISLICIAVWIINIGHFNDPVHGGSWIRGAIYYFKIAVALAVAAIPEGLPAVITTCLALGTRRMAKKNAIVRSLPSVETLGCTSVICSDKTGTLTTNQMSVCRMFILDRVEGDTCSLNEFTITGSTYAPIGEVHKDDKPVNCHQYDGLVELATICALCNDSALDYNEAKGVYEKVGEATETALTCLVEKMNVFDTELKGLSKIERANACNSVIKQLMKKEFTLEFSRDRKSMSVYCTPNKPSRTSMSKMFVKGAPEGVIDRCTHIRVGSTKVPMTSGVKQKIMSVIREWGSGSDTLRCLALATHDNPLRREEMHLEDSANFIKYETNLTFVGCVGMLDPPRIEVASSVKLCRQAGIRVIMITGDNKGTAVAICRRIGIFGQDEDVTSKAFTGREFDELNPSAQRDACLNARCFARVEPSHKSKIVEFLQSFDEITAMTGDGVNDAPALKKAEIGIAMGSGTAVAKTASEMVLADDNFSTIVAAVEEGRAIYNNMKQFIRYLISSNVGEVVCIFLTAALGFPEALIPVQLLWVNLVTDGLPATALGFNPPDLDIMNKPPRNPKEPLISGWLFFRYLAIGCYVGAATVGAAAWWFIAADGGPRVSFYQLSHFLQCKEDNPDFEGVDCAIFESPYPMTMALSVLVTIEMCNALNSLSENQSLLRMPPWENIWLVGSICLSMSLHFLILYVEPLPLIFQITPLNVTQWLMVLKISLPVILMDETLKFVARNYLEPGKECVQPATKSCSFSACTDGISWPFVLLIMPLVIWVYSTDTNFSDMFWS
UniProt Q15041, whole entry, looked up: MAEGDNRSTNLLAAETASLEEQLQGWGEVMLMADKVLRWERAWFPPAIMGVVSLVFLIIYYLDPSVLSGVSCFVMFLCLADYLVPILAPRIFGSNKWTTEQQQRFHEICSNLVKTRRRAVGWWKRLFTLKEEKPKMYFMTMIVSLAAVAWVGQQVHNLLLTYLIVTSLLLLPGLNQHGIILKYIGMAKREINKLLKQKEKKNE
UniProt P54259: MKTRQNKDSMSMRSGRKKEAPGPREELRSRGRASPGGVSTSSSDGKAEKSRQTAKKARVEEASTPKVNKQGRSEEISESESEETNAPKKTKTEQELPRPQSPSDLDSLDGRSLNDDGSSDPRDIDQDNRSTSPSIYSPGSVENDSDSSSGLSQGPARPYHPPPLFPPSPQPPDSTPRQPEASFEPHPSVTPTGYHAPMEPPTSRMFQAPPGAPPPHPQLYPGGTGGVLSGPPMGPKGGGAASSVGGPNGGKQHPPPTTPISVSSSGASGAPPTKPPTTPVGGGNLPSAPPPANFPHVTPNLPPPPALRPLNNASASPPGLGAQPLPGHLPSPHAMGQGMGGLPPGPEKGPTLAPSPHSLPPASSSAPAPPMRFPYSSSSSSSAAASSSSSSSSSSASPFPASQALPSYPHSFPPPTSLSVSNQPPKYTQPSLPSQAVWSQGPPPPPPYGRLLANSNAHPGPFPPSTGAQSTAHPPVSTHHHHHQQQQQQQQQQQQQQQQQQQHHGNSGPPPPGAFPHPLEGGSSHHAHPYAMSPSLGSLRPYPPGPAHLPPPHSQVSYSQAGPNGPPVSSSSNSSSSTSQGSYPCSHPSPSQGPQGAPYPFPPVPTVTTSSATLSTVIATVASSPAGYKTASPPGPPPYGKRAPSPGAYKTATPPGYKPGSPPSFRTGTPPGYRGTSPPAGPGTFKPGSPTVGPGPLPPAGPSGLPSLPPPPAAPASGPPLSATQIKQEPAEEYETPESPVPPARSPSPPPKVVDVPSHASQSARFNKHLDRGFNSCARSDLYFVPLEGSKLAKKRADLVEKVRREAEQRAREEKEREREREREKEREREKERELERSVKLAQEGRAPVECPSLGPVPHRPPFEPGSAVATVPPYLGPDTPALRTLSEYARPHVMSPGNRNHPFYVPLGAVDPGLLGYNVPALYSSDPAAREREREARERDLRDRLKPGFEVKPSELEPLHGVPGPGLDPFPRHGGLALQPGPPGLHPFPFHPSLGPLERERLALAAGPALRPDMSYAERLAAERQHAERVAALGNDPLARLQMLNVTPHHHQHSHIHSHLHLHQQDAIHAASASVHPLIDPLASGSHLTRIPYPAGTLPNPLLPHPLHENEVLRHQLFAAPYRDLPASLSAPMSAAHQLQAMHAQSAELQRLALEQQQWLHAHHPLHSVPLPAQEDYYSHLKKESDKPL
UniProt Q9NVJ2: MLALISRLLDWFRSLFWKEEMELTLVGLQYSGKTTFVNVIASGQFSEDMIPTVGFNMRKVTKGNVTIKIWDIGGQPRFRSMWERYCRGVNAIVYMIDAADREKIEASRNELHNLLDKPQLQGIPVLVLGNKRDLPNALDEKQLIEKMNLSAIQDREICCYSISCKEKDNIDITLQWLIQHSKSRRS
UniProt P36404: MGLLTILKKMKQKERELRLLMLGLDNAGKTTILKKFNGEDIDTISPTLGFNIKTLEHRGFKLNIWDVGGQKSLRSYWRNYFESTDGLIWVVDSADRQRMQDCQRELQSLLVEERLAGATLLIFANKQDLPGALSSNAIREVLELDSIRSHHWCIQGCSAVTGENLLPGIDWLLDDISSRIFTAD
UniProt Q9H1Y0: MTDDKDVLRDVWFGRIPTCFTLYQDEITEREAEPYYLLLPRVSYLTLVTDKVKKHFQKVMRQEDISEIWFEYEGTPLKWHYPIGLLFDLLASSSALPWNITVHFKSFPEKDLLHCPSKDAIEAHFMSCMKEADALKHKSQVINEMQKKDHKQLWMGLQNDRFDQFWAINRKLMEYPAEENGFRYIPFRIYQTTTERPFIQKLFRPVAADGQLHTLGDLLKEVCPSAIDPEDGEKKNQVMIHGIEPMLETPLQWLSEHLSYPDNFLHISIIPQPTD
UniProt P08243: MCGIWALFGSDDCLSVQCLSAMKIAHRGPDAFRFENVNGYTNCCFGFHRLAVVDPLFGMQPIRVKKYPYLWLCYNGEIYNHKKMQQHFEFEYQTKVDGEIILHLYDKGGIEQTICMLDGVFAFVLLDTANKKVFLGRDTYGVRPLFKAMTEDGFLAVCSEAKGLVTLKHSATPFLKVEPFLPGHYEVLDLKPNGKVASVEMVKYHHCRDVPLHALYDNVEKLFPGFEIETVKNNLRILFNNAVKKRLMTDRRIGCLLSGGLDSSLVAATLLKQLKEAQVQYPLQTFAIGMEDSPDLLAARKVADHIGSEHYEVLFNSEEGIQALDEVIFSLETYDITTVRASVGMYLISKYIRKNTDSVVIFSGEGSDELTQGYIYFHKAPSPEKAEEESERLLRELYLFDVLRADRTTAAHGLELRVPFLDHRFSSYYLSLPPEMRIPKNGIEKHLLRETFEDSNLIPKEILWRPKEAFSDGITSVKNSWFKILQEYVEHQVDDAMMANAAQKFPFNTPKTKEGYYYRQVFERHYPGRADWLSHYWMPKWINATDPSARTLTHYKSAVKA
UniProt O95671: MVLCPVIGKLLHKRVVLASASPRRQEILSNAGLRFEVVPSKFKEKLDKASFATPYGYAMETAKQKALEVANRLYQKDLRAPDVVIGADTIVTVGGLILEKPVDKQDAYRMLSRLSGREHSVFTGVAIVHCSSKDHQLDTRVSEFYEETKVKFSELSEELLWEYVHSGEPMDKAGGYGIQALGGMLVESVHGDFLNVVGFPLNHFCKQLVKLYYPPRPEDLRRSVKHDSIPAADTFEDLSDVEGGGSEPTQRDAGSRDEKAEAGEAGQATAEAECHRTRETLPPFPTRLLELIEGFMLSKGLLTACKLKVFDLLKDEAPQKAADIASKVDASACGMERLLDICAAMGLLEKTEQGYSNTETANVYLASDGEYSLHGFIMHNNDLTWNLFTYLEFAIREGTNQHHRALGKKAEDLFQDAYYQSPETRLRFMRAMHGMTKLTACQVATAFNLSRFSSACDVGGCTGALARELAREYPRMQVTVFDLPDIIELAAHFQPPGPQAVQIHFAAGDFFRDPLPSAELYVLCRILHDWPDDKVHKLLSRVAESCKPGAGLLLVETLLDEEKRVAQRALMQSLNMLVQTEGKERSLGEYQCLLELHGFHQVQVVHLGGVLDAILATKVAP
UniProt L0R819, whole entry, looked up: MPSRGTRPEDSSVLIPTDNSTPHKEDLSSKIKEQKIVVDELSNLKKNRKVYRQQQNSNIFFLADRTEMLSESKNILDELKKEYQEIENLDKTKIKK
UniProt Q16864, whole entry, looked up: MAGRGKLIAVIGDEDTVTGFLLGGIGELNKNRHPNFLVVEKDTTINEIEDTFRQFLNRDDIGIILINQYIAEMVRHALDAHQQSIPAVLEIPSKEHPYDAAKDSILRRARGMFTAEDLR
UniProt P54709, whole entry, looked up: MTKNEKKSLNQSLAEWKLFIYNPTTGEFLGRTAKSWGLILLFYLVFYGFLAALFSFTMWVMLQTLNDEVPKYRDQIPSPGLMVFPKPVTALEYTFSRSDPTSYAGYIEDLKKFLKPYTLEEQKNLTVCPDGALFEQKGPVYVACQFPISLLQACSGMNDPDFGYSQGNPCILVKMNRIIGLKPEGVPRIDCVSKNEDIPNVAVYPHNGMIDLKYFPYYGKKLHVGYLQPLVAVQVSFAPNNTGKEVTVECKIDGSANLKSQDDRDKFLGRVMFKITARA
UniProt Q9H2C2: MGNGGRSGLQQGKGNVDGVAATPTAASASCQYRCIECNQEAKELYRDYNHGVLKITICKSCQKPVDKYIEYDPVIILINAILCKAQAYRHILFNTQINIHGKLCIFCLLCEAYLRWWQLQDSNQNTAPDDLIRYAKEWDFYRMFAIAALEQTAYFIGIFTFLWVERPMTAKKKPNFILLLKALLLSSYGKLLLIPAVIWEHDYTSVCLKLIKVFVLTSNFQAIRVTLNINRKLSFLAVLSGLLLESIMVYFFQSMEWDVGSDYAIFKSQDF
UniProt P36542: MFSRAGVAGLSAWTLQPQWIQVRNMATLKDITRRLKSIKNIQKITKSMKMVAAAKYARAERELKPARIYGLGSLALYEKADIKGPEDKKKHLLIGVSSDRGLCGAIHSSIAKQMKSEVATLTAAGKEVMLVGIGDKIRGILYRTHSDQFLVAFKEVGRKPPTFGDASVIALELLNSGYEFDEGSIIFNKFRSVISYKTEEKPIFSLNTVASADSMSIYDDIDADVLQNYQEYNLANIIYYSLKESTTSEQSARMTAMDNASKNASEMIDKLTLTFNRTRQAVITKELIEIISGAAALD
UniProt Q9Y4P1: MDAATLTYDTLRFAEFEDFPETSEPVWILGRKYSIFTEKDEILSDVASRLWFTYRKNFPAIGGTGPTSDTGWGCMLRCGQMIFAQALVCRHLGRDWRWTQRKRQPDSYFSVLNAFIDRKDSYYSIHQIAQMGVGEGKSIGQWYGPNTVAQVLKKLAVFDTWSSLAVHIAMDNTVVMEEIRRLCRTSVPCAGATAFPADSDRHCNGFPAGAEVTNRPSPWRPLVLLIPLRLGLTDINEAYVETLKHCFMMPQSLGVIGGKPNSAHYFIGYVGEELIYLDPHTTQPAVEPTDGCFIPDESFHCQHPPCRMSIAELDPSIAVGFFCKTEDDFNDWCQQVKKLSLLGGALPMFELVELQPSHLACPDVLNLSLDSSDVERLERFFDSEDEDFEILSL
UniProt O00244: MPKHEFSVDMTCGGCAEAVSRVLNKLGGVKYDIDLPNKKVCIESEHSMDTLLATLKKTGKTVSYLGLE

What was measured:
Experiment in all cases: log2 fold change, soluble protein after heating vs DMSO (PISA); higher = thermal stabilisation; K562 cells, 10 uM, 30 min; active = over 0.2 and 3.5 SD of the protein, either way, in both replicates (recomputed)
[1] = compound: CC1=C(C=C(C=C1)NC(=O)C2=CC(=CC=C2)C(C)(C)C#N)NC3=CC4=C(C=C3)N=CN(C4=O)C
Summary of the method: (§1)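 K562 cells at 2×10^6 cells/mL were treated with 10 μM compound for 30 min. Aliquots were heated for 3 min across 48°C-58°C, pooled, and extracted in PBS with 0.5% NP-40 at 4°C; soluble protein was the supernatant after 21,000xg for 90 min. Soluble protein was quantified by TMTpro 16plex LC-MS/MS with channel sums equalised, and reported as log2 fold change in thermal stability against DMSO controls, with values from duplicates.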

[2] = compound: CC1=C(C=C(C=C1)NC(=O)C2=CC(=CC=C2)N(C)C)NC(=O)C3=CC=C(C=C3)O
Summary of the method: as §1

[3] = compound: CC1=CC=C(C=C1)SC2=C3C=C(SC3=CN=C2)C(=O)N
Summary of the method: as §1

[4] = compound: CC1=NC(=CC=C1)C2=C(N=C(N2)C(C)(C)C)C3=CC4=NC=CN=C4C=C3
Summary of the method: as §1

Nexturastat A = compound: CCCCN(Cc1ccc(C(=O)NO)cc1)C(=O)Nc1ccccc1 [Nexturastat A]
Summary of the method: as §1

vemurafenib = compound: CCCS(=O)(=O)Nc1ccc(F)c(C(=O)c2c[nH]c3ncc(-c4ccc(Cl)cc4)cc23)c1F [vemurafenib]
Summary of the method: as §1

[5] = compound: CCCS(=O)(=O)Nc1ccc(F)c(C(=O)c2c[nH]c3ncc(Cl)cc23)c1F
Summary of the method: as §1

[6] = compound: CCCc1cc(C)[nH]c(=O)c1CNC(=O)c1cc(-c2ccnc(N3CCN(C)CC3)c2)cc2c1cnn2C(C)C
Summary of the method: as §1

givinostat = compound: CCN(CC)Cc1ccc2cc(COC(=O)Nc3ccc(C(=O)NO)cc3)ccc2c1 [givinostat]
Summary of the method: as §1

barasertib = compound: CCN(CCCOc1ccc2c(Nc3cc(CC(=O)Nc4cccc(F)c4)[nH]n3)ncnc2c1)CCOP(=O)(O)O [barasertib]
Summary of the method: as §1

Measured: log2 fold change

ATP23 (UniProt Q9Y6H3)
inactive: [1] 0.027 | [2] -0.013 | [3] 0.122 | [4] 0.058 | Nexturastat A -0.172 | vemurafenib 0.021 | [5] -0.039 | [6] -0.031 | givinostat -0.012 | barasertib -0.049

ATG7 (UniProt O95352)
inactive: [1] 0 | [2] -0.027 | [3] 0.006 | [4] 0.023 | Nexturastat A -0.05 | vemurafenib 0.021 | [5] 0.048 | [6] -0.016 | givinostat -0.017 | barasertib 0.033

ATP5MG (UniProt O75964)
inactive: [1] -0.023 | [2] -0.061 | [3] -0.027 | [4] -0.086 | Nexturastat A -0.062 | vemurafenib -0.093 | [5] -0.091 | [6] -0.054 | givinostat -0.019 | barasertib 0

ATP2A2 (UniProt P16615)
inactive: [1] 0.02 | [2] 0.015 | [3] -0.012 | [4] 0.012 | Nexturastat A -0.048 | vemurafenib 0.019 | [5] 0.024 | [6] -0.028 | givinostat 0.003 | barasertib 0.019

ATG3 (UniProt Q9NT62)
inactive: [1] -0.024 | [2] -0.016 | [3] -0.019 | [4] 0.034 | Nexturastat A -0.067 | vemurafenib -0.008 | [5] -0.012 | [6] -0.029 | givinostat 0.007 | barasertib 0.027

ARL6IP1 (UniProt Q15041)
inactive: [1] -0.008 | [2] 0.039 | [3] 0.532 | [4] 0.011 | Nexturastat A -0.033 | vemurafenib -0.065 | [5] -0.038 | [6] -0.01 | givinostat 0.006 | barasertib 0.024

ASF1B (UniProt Q9NVP2)
inactive: [1] -0.029 | [2] -0.058 | [3] 0 | [4] -0.075 | Nexturastat A 0.281 | vemurafenib -0.008 | [5] -0.062 | [6] -0.222 | givinostat 0.284 | barasertib 0.07

ATN1 (UniProt P54259)
inactive: [1] -0.037 | [2] 0.046 | [3] -0.04 | [4] 0.089 | Nexturastat A 0.02 | vemurafenib 0.027 | [5] 0.008 | [6] 0.003 | givinostat 0.057 | barasertib -0.018

ARL8B (UniProt Q9NVJ2)
inactive: [1] -0.001 | [2] 0.069 | [3] 0.027 | [4] 0.018 | Nexturastat A -0.014 | vemurafenib 0.006 | [5] 0.02 | [6] -0.04 | givinostat -0.014 | barasertib -0.011

ASNA1 (UniProt O43681)
inactive: [1] 0.011 | [2] 0.026 | [3] -0.016 | [4] 0.065 | Nexturastat A -0.192 | vemurafenib 0.017 | [5] 0.039 | [6] -0.096 | givinostat -0.05 | barasertib -0.028

ATP5F1D (UniProt P30049)
inactive: [1] -0.032 | [2] -0.056 | [3] 0.093 | [4] 0.003 | Nexturastat A -0.017 | vemurafenib -0.007 | [5] 0.005 | [6] -0.029 | givinostat -0.003 | barasertib 0.008

ARL2 (UniProt P36404)
inactive: [1] 0.014 | [2] 0.031 | [3] 0.002 | [4] -0.001 | Nexturastat A -0.101 | vemurafenib 0.016 | [5] -0.022 | [6] 0.015 | givinostat 0.017 | barasertib 0.013

ATG5 (UniProt Q9H1Y0)
inactive: [1] 0.003 | [2] -0.025 | [3] 0.021 | [4] 0.101 | Nexturastat A -0.043 | vemurafenib 0.03 | [5] 0.048 | [6] 0.035 | givinostat 0.069 | barasertib -0.036

ASNS (UniProt P08243)
inactive: [1] 0.008 | [2] 0.007 | [3] 0.026 | [4] 0.025 | Nexturastat A -0.045 | vemurafenib 0.007 | [5] 0.013 | [6] 0 | givinostat -0.004 | barasertib -0.004

Pulled one by one from the list above (two):
ATG5 (UniProt Q9H1Y0)
inactive: [1] 0.003 | [2] -0.025 | [3] 0.021 | [4] 0.101 | Nexturastat A -0.043 | vemurafenib 0.03 | [5] 0.048 | [6] 0.035 | givinostat 0.069 | barasertib -0.036

ATP2A2 (UniProt P16615)
inactive: [1] 0.02 | [2] 0.015 | [3] -0.012 | [4] 0.012 | Nexturastat A -0.048 | vemurafenib 0.019 | [5] 0.024 | [6] -0.028 | givinostat 0.003 | barasertib 0.019

Remaining list, next part:

ASMTL (UniProt O95671)
inactive: [1] 0 | [2] -0.117 | [3] 0.018 | [4] -0.018 | Nexturastat A 0.023 | vemurafenib -0.014 | [5] 0.04 | [6] -0.23 | givinostat 0.027 | barasertib 0.047

ASDURF (UniProt L0R819)
inactive: [1] -0.059 | [2] 0.05 | [3] 0.028 | [4] -0.035 | Nexturastat A -0.003 | vemurafenib -0.026 | [5] -0.047 | [6] -0.034 | givinostat -0.02 | barasertib -0.018

ATP6V1F isoform 2 (UniProt Q16864)
inactive: [1] -0.139 | [2] 0.034 | [3] 0.011 | [4] 0.06 | Nexturastat A 0.146 | vemurafenib 0.123 | [5] -0.055 | [6] 0.038 | givinostat -0.044 | barasertib 0.072

ATP1B3 (UniProt P54709)
inactive: [1] 0 | [2] -0.015 | [3] -0.02 | [4] 0.046 | Nexturastat A -0.065 | vemurafenib 0.005 | [5] -0.036 | [6] -0.018 | givinostat -0.055 | barasertib -0.021

ATP11C (UniProt Q8NB49)
inactive: [1] -0.017 | [2] -0.014 | [3] 0.037 | [4] 0.021 | Nexturastat A 0.017 | vemurafenib -0.03 | [5] -0.028 | [6] -0.014 | givinostat -0.06 | barasertib -0.009

ATG2A isoform 3 (UniProt Q2TAZ0)
inactive: [1] -0.013 | [2] 0.018 | [3] 0.027 | [4] -0.052 | Nexturastat A -0.057 | vemurafenib -0.04 | [5] 0.034 | [6] -0.06 | givinostat 0.007 | barasertib 0.037

ASCC1 isoform 2 (UniProt Q8N9N2)
inactive: [1] -0.055 | [2] 0.017 | [3] -0.007 | [4] 0.001 | Nexturastat A 0.038 | vemurafenib -0.07 | [5] 0.029 | [6] -0.024 | givinostat 0.048 | barasertib 0.013

ARV1 (UniProt Q9H2C2)
inactive: [1] 0.005 | [2] 0.019 | [3] 0.019 | [4] 0.044 | Nexturastat A -0.026 | vemurafenib 0.003 | [5] 0.048 | [6] -0.102 | givinostat 0.014 | barasertib -0.025

ATP5F1C (UniProt P36542)
inactive: [1] -0.015 | [2] -0.009 | [3] 0.014 | [4] 0.019 | Nexturastat A -0.009 | vemurafenib -0.01 | [5] 0 | [6] -0.021 | givinostat -0.003 | barasertib -0.009

ATG4B isoform 2 (UniProt Q9Y4P1)
inactive: [1] -0.046 | [2] -0.287 | [3] 0.218 | [4] -0.072 | Nexturastat A 0.132 | vemurafenib 0.087 | [5] -0.02 | [6] 0.031 | givinostat 0.126 | barasertib 0.126

ATP12A isoform 2 (UniProt P54707)
inactive: [1] -0.001 | [2] -0.006 | [3] 0 | [4] 0.005 | Nexturastat A -0.132 | vemurafenib -0.03 | [5] -0.072 | [6] -0.021 | givinostat -0.009 | barasertib 0.015

ATOX1 (UniProt O00244)
inactive: [1] 0.056 | [2] -0.065 | [3] 0.275 | [4] 0.239 | Nexturastat A -0.037 | vemurafenib 0.054 | [5] 0.372 | [6] 0.28 | givinostat -0.072 | barasertib -0.025

ATP5F1A (UniProt P25705)
inactive: [1] 0.002 | [2] 0.018 | [3] -0.029 | [4] 0 | Nexturastat A -0.085 | vemurafenib -0.009 | [5] -0.043 | [6] -0.029 | givinostat -0.012 | barasertib 0.01
